Measured values as given in patent publication US20260258085A1, “NOVEL DECAPEPTIDE AND USE THEREOF IN ANTIBACTERIAL” (METHYCURE BIOTECH CORP., priority 2023, published 2026).
Some of these results come from one statement about several compounds together. Positions of bridges follow the written chain, without caps; N, C: chain ends. Non-standard residues stand in square brackets, D forms with d. Residues, ends and D or L forms follow the SMILES beside them. ξ: configuration not given here. *: point of attachment. X1 = CC[C@H](C)CCCCC(=O)*; dDab = NCC[C@@H](N)C(=O)O; Dab = NCC[C@H](N)C(=O)O; ξDab = NCCC(N)C(=O)O

Test system: HEK293 cells
Type: cell-based, human
Conditions: HEK293, 48 hours, MTT

| Structure (SMILES) | concentration required to produce 50% inhibition of cell growth (IC50) |
| --- | --- |
| CC[C@H](C)CCCCC(=O)N[C@@H](CCN)C(=O)N[C@H](C(=O)N[C@H](CCN)C(=O)N[C@H]1CCNC(=O)[C@H](CC(C)C)NC(=O)[C@H](CCN)NC(=O)[C@H](CCN)NC(=O)[C@H]([C@@H](C)CC)NC(=O)[C@@H](CC(C)C)NC(=O)[C@H](CCN)NC1=O)[C@@H](C)O [Antimicrobial Peptide, {6-ME-Octanoic acid}-{Dab}-{Thr}-{D-Dab}-{Dab}-{Dab}-{D-Leu}-{Ile}-{Dab}-{Dab}-{Leu}] (X1-[Dab]T[dDab][Dab][Dab][dL]I[Dab][Dab]L; lactam 4-C) | greater than 512 μg/mL |
| CC[C@H](C)CCCCC(=O)N[C@@H](CCN)C(=O)N[C@H](C(=O)N[C@@H](CCN)C(=O)N[C@H]1CCNC(=O)[C@H]([C@@H](C)O)NC(=O)[C@H](CCN)NC(=O)[C@H](CCN)NC(=O)[C@H](CC(C)C)NC(=O)[C@@H](CC(C)C)NC(=O)[C@H](CCN)NC1=O)[C@@H](C)O [Colistin, reference compound] (X1-[Dab]T[Dab][ξDab][Dab][dL]L[Dab][Dab]T; lactam 4-C) | greater than 512 μg/mL |
